Source: PubChem BioAssay AID2685 (National Center for Advancing Translational Sciences (NCATS), 2010)
The other results are listed elsewhere or left out. The main result of the screen is listed elsewhere. These columns were measured beside it and carry no call. The list favours compounds with an active or inconclusive main result. Words in brackets tell the shape of the fitted curve; partial curves, single points and poor fits give uncertain potencies.

Experiment: qHTS Assay for Lipid Storage Modulators in Drosophila S3 Cells;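 for cell number change: cells counted by Cell Tracker Red CMTPX staining in the red channel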
Settings: BODIPY lipid droplet fluorescence, 18-24 h; for cell number change: measured here: cell count max response, cells fed with added oleic acid
Outline: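 Drosophila S3 cells loaded with oleic acid (400 uM, as added) and compounds at several concentrations; lipid droplets imaged by 488-nm laser-scanning cytometry, 500–530 nm intensity and object ratio to cell channel. Percent activity normalized to 20 uM Triacsin C.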

[1] = measured here: cell number channel AC50, cells fed with added oleic acid
[2] = measured here: lipid fluorescence (Fed channel) AC50, cells fed with added oleic acid

| Structure (SMILES) | AC50 [1] | AC50 [2] | cell number change [%] |
| --- | --- | --- | --- |
| C=CCn1c(C)cc(C(=O)COc2nncc3ccccc23)c1C | 2.31 µM [falling, partial curve, poor fit] | 2.91 µM [falling, full curve] | – |
| CCCn1ccnc1SCC(=O)Nc1c(C)n(C)n(-c2ccccc2)c1=O | 0.82 µM [falling, full curve] | 0.82 µM [falling, full curve] | -64.2 |
| CN(CC(=O)Nc1ccccc1Cl)C(=O)COC(=O)c1nc(Cl)ccc1Cl | – | 32.6 µM [rising, single point] | – |
| Cc1nc2scc(C)n2c(=O)c1S(=O)(=O)NCc1ccccc1 | – | – | -11 |
| COc1cccc(NC(=O)CCNS(=O)(=O)c2ccc(Br)s2)c1 | – | – | 25.2 |
| Cc1nn(-c2ccccc2)c(Cl)c1/C=C(\C#N)C(=O)NC(C)C | – | – | -8.27 |
| CC(C)C(C)NC(=O)COC(=O)c1cccc(C(=O)OCC(=O)NC(C)C(C)C)n1 (stereo not given) | – | 29.1 µM [falling, single point] | -27.5 |
| Cc1ccc(N2CC(C(=O)N/N=C/c3c(F)cccc3Cl)CC2=O)cc1 (stereo not given) | – | 20.6 µM [rising, single point] | 26.5 |
| CC1CCCC(C)N1/N=C/c1cccc([N+](=O)[O-])c1 (stereo not given) | 5.17 µM [rising, partial curve, poor fit] | 0.146 µM [falling, full curve, poor fit] | 34.4 |
| COc1cc(CNc2ccccc2)c([N+](=O)[O-])cc1OC | – | 29.1 µM [falling, single point] | -2.93 |
| COCCN(C(=O)COC(=O)c1cccc2ccccc12)c1c(N)n(Cc2ccccc2)c(=O)[nH]c1=O | 3.66 µM [falling, partial curve, poor fit] | – | -8.01 |
| CCOCCCN(C(=O)CCC(=O)Nc1cc(C)on1)C(C(=O)NC(C)(C)CC)c1cccc(OC)c1OC (stereo not given) | – | – | -5.42 |
| COc1ccccc1-n1cc(CN2CCCC(CO)(Cc3cccc(Cl)c3)C2)cn1 (stereo not given) | – | – | 2.19 |
| O=C(OCC(=O)N1CCC(Cc2ccccc2)CC1)c1ccc(CO)cc1 | 29.1 µM [falling, single point] | 0.00517 µM [falling, full curve, poor fit] | -46.7 |
| CCCCn1c(N)c(N(CC(C)C)C(=O)CCNC(=O)c2ccc([N+](=O)[O-])cc2)c(=O)[nH]c1=O | 23.1 µM [rising, partial curve] | – | 151 |
| CCN(CCN1CCCC1)C(=O)C1CCC(=O)N(CCCN2CCOCC2)C1 (stereo not given) | – | 35.5 µM [falling, single point] | -11.8 |
| CCOC(=O)NCc1ccc(CNC(=O)OCC)cc1 | – | – | 7.55 |
| CC1=CC(C)C2C(=O)N(c3ccccc3)C(=O)C2C1 (stereo not given) | – | 3.66 µM [falling, full curve] | -2.45 |
| Cn1c(CCn2ccccc2=O)nc2cc(NC(=O)COc3ccccc3)ccc21 | – | 3.66 µM [rising, full curve] | -7.93 |
| COc1cccc(-c2cc(=O)c3cc(NC(=O)c4ccc(Cl)cc4)ccc3[nH]2)c1 | – | 6.51 µM [rising, partial curve] | 14.6 |
| CCOC(=O)c1oc2ccccc2c1CN1CCOCC1 | – | 16.4 µM [rising, single point] | – |
| O=C(COc1ccc(Br)cc1)Nc1ccc2oc(=O)ccc2c1 | – | 0.82 µM [rising, full curve, poor fit] | 6.65 |
| COc1ccc(-c2noc(CN(C)C(=O)c3ccc4c(c3)OCO4)n2)cc1OC | – | – | 19.2 |
| CCOC(=O)c1cc(-c2ccc(Cl)s2)[nH]n1 | – | 13 µM [falling, single point] | -27.6 |
| COc1ccc([N+](=O)[O-])cc1NC(=O)Cc1ccc(C)cc1 | 0.326 µM [rising, full curve, poor fit] | 1.46 µM [rising, full curve, poor fit] | 31.8 |
| O=S(=O)(Nc1ccc(S(=O)(=O)Nc2nccs2)cc1)c1ccc2c(c1)OCCO2 | – | 20.6 µM [falling, partial curve] | 5.6 |
| Cc1nc2ccccc2n1CC(=O)NC1CCCCCC1 | 14.6 µM [falling, single point] | 16.4 µM [falling, partial curve] | -39.2 |
| O=C(NCC(c1cccs1)N1CCOCC1)c1cc(Cl)ccc1[N+](=O)[O-] (stereo not given) | – | 6.51 µM [falling, single point] | -19 |
| O=C(CNC(=O)/C(=C\c1ccccc1)NC(=O)c1ccc(Br)cc1)OCc1ccccc1 | – | 6.51 µM [rising, single point] | 26.8 |
| CC(NCc1ccc(OCc2ccc(Cl)cc2)cc1)C(O)c1ccccc1 (stereo not given) | – | – | -28.4 |

2 entries from above, reformatted.
Structure (SMILES)	AC50 [1]	AC50 [2]	cell number change [%]
CN(CC(=O)Nc1ccccc1Cl)C(=O)COC(=O)c1nc(Cl)ccc1Cl	–	32.6 µM [rising, single point]	–
Cc1nc2scc(C)n2c(=O)c1S(=O)(=O)NCc1ccccc1	–	–	-11
